Measurements reported in PubChem BioAssay AID1259405 (NCATS, 2018).

- Screen: 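Silenced genes that increase secreted GFP made by CHO cells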 (primary screen)
- System: Chinese hamster CHO-K1 ovary cells with stable secreted eGFP expression
- Reagent: single siRNA against mouse genes, 0.8 pmol siRNA per well (2 µl of 400 nM stock)
- Duration: 3 days
- Detection: 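Percent of the per-plate non-targeting control median for intracellular GFP per well by laser scanning cytometry and for cell viability by ATP luminescence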
- Scale: GFP, % of control: higher = more GFP per well, higher productivity; viability (ATP), % of control: higher = more viable cells (more ATP)
- Hit rule: 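a knock-down is called active if GFP reaches 120% or more of non-targeting control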
Here is an unselected part of about 50,000 reagents. In the full data, about 4,000 (8%) were called active. 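Mouse siRNA library applied to hamster cells; one well for each siRNA.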 Entries without a mark were called inactive. Reagents against one gene are numbered here.

Which result is listed for Banf2 (BANF family member 2) #1?
GFP, % of control: 102; viability (ATP), % of control: 53.1

What did the screen give for Banf2 (BANF family member 2) #2?
GFP, % of control: 78.2; viability (ATP), % of control: 115

What did the screen give for Banf2 (BANF family member 2) #3?
GFP, % of control: 64.7; viability (ATP), % of control: 36.8

With Msmb (beta-microseminoprotein) #1, what does the deposit list?
GFP, % of control: 63.3; viability (ATP), % of control: 60

What did the screen give for Msmb (beta-microseminoprotein) #2?
GFP, % of control: 120; viability (ATP), % of control: 53.6

For Msmb (beta-microseminoprotein) #3, what was measured?
GFP, % of control: 54.9; viability (ATP), % of control: 71.9

With Krt75 (keratin 75) #1, how do the results read?
GFP, % of control: 39.7; viability (ATP), % of control: 62.9

With Krt75 (keratin 75) #2, how do the results read?
GFP, % of control: 62.9; viability (ATP), % of control: 52.9

For Erbb2 (erb-b2 receptor tyrosine kinase 2) #1, what does the deposit list?
GFP, % of control: 43.4; viability (ATP), % of control: 50.2

For Erbb2 (erb-b2 receptor tyrosine kinase 2) #2, what does the deposit list?
GFP, % of control: 39.2; viability (ATP), % of control: 53.9

For Erbb2 (erb-b2 receptor tyrosine kinase 2) #3, how do the results read?
GFP, % of control: 72.3; viability (ATP), % of control: 76.6

With Rita1 (RBPJ interacting and tubulin associated 1) #1, how do the results read?
GFP, % of control: 99.9; viability (ATP), % of control: 86.9

What did the screen give for Rita1 (RBPJ interacting and tubulin associated 1) #2?
GFP, % of control: 88.9; viability (ATP), % of control: 53.5

What is on record for Rita1 (RBPJ interacting and tubulin associated 1) #3?
GFP, % of control: 127 (active); viability (ATP), % of control: 113

What did the screen give for Cfhr4 (complement factor H-related 4) #1?
GFP, % of control: 60.7; viability (ATP), % of control: 66.9

Which result is listed for Cfhr4 (complement factor H-related 4) #2?
GFP, % of control: 62.5; viability (ATP), % of control: 69.8

What is on record for Cfhr4 (complement factor H-related 4) #3?
GFP, % of control: 81.8; viability (ATP), % of control: 43.8

Reprinted from above (5 entries):
Erbb2 (erb-b2 receptor tyrosine kinase 2) #1 — GFP, % of control: 43.4; viability (ATP), % of control: 50.2
Erbb2 (erb-b2 receptor tyrosine kinase 2) #2 — GFP, % of control: 39.2; viability (ATP), % of control: 53.9
Erbb2 (erb-b2 receptor tyrosine kinase 2) #3 — GFP, % of control: 72.3; viability (ATP), % of control: 76.6
Rita1 (RBPJ interacting and tubulin associated 1) #1 — GFP, % of control: 99.9; viability (ATP), % of control: 86.9
Rita1 (RBPJ interacting and tubulin associated 1) #2 — GFP, % of control: 88.9; viability (ATP), % of control: 53.5

Additional reagents:
With Gpat3 (glycerol-3-phosphate acyltransferase 3) #1, what was measured?
GFP, % of control: 53.6; viability (ATP), % of control: 74.7

With Gpat3 (glycerol-3-phosphate acyltransferase 3) #2, what does the deposit list?
GFP, % of control: 98.1; viability (ATP), % of control: 73.2

Which result is listed for Gpat3 (glycerol-3-phosphate acyltransferase 3) #3?
GFP, % of control: 114; viability (ATP), % of control: 90.7

For Psrc1 (proline/serine-rich coiled-coil 1) #1, what was measured?
GFP, % of control: 29.5; viability (ATP), % of control: 28.4

With Psrc1 (proline/serine-rich coiled-coil 1) #2, what does the deposit list?
GFP, % of control: 79.6; viability (ATP), % of control: 74.6

What did the screen give for Psrc1 (proline/serine-rich coiled-coil 1) #3?
GFP, % of control: 144 (active); viability (ATP), % of control: 125

With Atp5mj (ATP synthase membrane subunit j) #1, what was measured?
GFP, % of control: 49; viability (ATP), % of control: 44.5

With Atp5mj (ATP synthase membrane subunit j) #2, what was measured?
GFP, % of control: 45.3; viability (ATP), % of control: 36.1

How did the screen score Atp5mj (ATP synthase membrane subunit j) #3?
GFP, % of control: 74.9; viability (ATP), % of control: 83.5

Which result is listed for Leng8 (leukocyte receptor cluster (LRC) member 8) #1?
GFP, % of control: 93; viability (ATP), % of control: 67.3

With Leng8 (leukocyte receptor cluster (LRC) member 8) #2, how do the results read?
GFP, % of control: 51.9; viability (ATP), % of control: 68.3

For Leng8 (leukocyte receptor cluster (LRC) member 8) #3, what was measured?
GFP, % of control: 98.6; viability (ATP), % of control: 105

What is on record for Pcdha7 (protocadherin alpha 7) #1?
GFP, % of control: 93.5; viability (ATP), % of control: 47.6

For Pcdha7 (protocadherin alpha 7) #2, how do the results read?
GFP, % of control: 30.8; viability (ATP), % of control: 46

What did the screen give for Pcdha7 (protocadherin alpha 7) #3?
GFP, % of control: 71.9; viability (ATP), % of control: 69.2

What is on record for Pacrgl (PARK2 co-regulated-like) #1?
GFP, % of control: 83.7; viability (ATP), % of control: 86.8

For Pacrgl (PARK2 co-regulated-like) #2, how do the results read?
GFP, % of control: 77.4; viability (ATP), % of control: 86.4

What did the screen give for Pacrgl (PARK2 co-regulated-like) #3?
GFP, % of control: 65.1; viability (ATP), % of control: 70.4

For Rb1cc1 (RB1-inducible coiled-coil 1) #1, how do the results read?
GFP, % of control: 66.7; viability (ATP), % of control: 66.2

With Rb1cc1 (RB1-inducible coiled-coil 1) #2, how do the results read?
GFP, % of control: 117; viability (ATP), % of control: 84.5

What is on record for Rb1cc1 (RB1-inducible coiled-coil 1) #3?
GFP, % of control: 66.2; viability (ATP), % of control: 80.9

Which result is listed for Slc25a21 #1?
GFP, % of control: 136 (active); viability (ATP), % of control: 102

What did the screen give for Slc25a21 #2?
GFP, % of control: 96.1; viability (ATP), % of control: 92

For Slc25a21 #3, what was measured?
GFP, % of control: 75.3; viability (ATP), % of control: 92.3

For Rfx2 (regulatory factor X, 2 (influences HLA class II expression)) #1, what was measured?
GFP, % of control: 93; viability (ATP), % of control: 107

What is on record for Rfx2 (regulatory factor X, 2 (influences HLA class II expression)) #2?
GFP, % of control: 141 (active); viability (ATP), % of control: 68.4

What is on record for Rfx2 (regulatory factor X, 2 (influences HLA class II expression)) #3?
GFP, % of control: 77.6; viability (ATP), % of control: 101

What did the screen give for Cep250 (centrosomal protein 250) #1?
GFP, % of control: 86.7; viability (ATP), % of control: 81.8

With Cep250 (centrosomal protein 250) #2, how do the results read?
GFP, % of control: 109; viability (ATP), % of control: 85.7

For Cep250 (centrosomal protein 250) #3, how do the results read?
GFP, % of control: 113; viability (ATP), % of control: 104

Which result is listed for Fcf1 (FCF1 rRNA processing protein) #1?
GFP, % of control: 85.1; viability (ATP), % of control: 74.6

What did the screen give for Fcf1 (FCF1 rRNA processing protein) #2?
GFP, % of control: 70.6; viability (ATP), % of control: 65.5

With Fcf1 (FCF1 rRNA processing protein) #3, what was measured?
GFP, % of control: 99.4; viability (ATP), % of control: 57.4

What is on record for 2810021J22Rik (RIKEN cDNA 2810021J22 gene) #1?
GFP, % of control: 74.3; viability (ATP), % of control: 75.5

How did the screen score 2810021J22Rik (RIKEN cDNA 2810021J22 gene) #2?
GFP, % of control: 72.3; viability (ATP), % of control: 43.8

With 2810021J22Rik (RIKEN cDNA 2810021J22 gene) #3, what was measured?
GFP, % of control: 82.7; viability (ATP), % of control: 70.3
